No constants are given. Whether binding was seen depends on the method and setting. For some assays here: Binding seen in cells or lysates may run through a third protein. Some entries that bind do so weakly or less than the wild type.
What was measured:
[1] = target: T1, cytoplasmic domain of mouse GPR50 (amino acids 304-592) (mouse) (UniProt O88495); experiment: two-hybrid; sequential transformation of defined constructs in yeast cells, growth assay on selective media
T1 sequence: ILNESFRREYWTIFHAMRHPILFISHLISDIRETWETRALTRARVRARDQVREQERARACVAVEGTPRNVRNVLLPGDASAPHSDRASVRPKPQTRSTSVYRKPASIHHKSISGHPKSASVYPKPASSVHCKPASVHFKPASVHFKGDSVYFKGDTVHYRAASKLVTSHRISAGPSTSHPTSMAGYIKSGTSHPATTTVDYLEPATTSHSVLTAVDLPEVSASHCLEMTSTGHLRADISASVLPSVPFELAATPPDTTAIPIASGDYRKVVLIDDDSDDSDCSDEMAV

Chains of the proteins cited; added tags and fusions are not shown.
UniProt Q8CHK4: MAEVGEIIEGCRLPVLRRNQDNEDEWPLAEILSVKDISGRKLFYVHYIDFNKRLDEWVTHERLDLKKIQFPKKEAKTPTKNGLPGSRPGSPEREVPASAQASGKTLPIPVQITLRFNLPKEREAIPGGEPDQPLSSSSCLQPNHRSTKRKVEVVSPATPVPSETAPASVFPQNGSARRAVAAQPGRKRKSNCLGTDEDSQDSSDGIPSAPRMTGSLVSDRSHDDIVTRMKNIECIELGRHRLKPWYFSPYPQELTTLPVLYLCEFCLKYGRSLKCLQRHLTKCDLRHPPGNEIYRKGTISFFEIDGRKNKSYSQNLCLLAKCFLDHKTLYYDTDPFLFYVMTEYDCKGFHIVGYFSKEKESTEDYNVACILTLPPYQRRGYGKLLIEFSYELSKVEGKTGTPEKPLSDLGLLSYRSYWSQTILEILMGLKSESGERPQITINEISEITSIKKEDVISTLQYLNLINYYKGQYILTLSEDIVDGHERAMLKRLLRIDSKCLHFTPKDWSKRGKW

[2] = target: full-length myc-tagged GPR50 (mouse) (UniProt O88495); experiment: co-IP; HEK293 cells transfected with flagTip60 and/or mycGpr50 constructs; total cell lysates immunoprecipitated overnight at 4 °C with anti-myc antibody and protein G-Sepharose, blot with anti-flag

For “full length TIP60, two-hybrid fusion (from UniProt Q8CHK4 1-513)”, the binding [1] was “binds”.
In the case of “full-length flag-tagged TIP60 (from UniProt Q8CHK4 1-513)”, the binding [2] is reported as “binds”.

Reference: paper PMC3157439
